Source: PubChem BioAssay AID504808 (Drosophila RNAi Screening Center, 2011)
Aim: 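Chromatin factors that keep E2F targets switched off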 (primary screen). Cells: Drosophila S2 cells. Reagent: long dsRNA against Drosophila genes. Detection: 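Dual luciferase plate measurements; E2F-specific signal taken as firefly over Renilla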. Reading the numbers: E2F firefly: higher = more E2F reporter activity; Renilla normaliser: higher = more normaliser reporter signal. Call rule: 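Called active if the normalised E2F reporter went up by over 50%; the cutoff is arbitrary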.
The deposit covers about 21,000 reagents; this is an unselected part of those with a known target gene and a result. Over the whole deposit, 18 (0.084%) got an active call. 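Raw counts without plate normalisation, one of two replicates; the ratio scores behind the calls were not deposited.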 Names joined by + are all predicted targets of the reagent. Not stated in the record: the amount of reagent, the time to read-out.

target	amplicon	E2F firefly, rep 1	Renilla normaliser, rep 1	activity call
CG3517 (GeneID 42324)	DRSC15492	1.55e5	7197	inactive
CG34166 (GeneID 5740596)	DRSC02482	55828	3288	inactive
CG3149 (GeneID 31489)	DRSC17732	7447	748	inactive
MICAL-like (GeneID 39475)	DRSC09829	73103	3223	inactive
CG13056 (GeneID 50267)	DRSC09937	1.73e5	8043	inactive
Jon66Ci (GeneID 38952)	DRSC10772	99112	3976	inactive
CG31898 (GeneID 319012)	DRSC01019	1.33e5	6674	inactive
snoRNA:Me28S-A982b + Uhg4 + snoRNA:Me28S-G3255a + 1 more	DRSC05143	1.31e5	5874	inactive
Glut1 (GeneID 38109)	DRSC07927	1.23e5	4005	inactive
Glut1 (GeneID 38109)	DRSC08662	70615	3339	inactive
CG12766 (GeneID 38462)	DRSC08295	94368	4583	inactive
Obp46a (GeneID 36088)	DRSC06220	1.49e5	5019	inactive
Iru (GeneID 41080)	DRSC14457	53212	3363	inactive
CG8746 (GeneID 35867)	DRSC07257	1.49e5	4882	inactive
CG14969 (GeneID 38415)	DRSC08428	83464	3254	inactive
bark (GeneID 33604)	DRSC00635	1.41e5	5454	inactive
Z600 (GeneID 39673)	DRSC11317	1.54e5	7837	inactive
snf (GeneID 31442)	DRSC18835	6984	956	inactive
CG42613 (GeneID 42269)	DRSC13332	90235	2696	inactive
CG42613 (GeneID 42269)	DRSC14769	98702	5566	inactive
CG42613 (GeneID 42269)	DRSC15802	85471	5663	inactive
CG14245 (GeneID 3772449)	DRSC14740	1.09e5	5851	inactive
thetaTry (GeneID 36218)	DRSC07705	99637	4130	inactive
Cyp6a13 (GeneID 35837)	DRSC07375	2951	216	inactive
CG31955 (GeneID 319045)	DRSC00285	1.45e5	4659	inactive
CG4582 (GeneID 43086)	DRSC15605	1.09e5	5485	inactive
Atx2 (GeneID 41883)	DRSC15727	52151	3486	inactive
CG5860 (GeneID 42095)	DRSC15896	1.15e5	5972	inactive
CG12910 (GeneID 36082)	DRSC06225	3119	228	inactive
Cap-D3 (GeneID 33778)	DRSC02349	1.45e5	4977	inactive
IleRS (GeneID 45785)	DRSC11667	79128	3561	inactive
CG3655 (GeneID 31056)	DRSC17676	83630	2983	inactive
CG3655 (GeneID 31056)	DRSC18181	60385	4630	inactive
CG3655 (GeneID 31056)	DRSC18477	71585	5032	inactive
CG13287 (GeneID 38660)	DRSC09961	55883	3535	inactive
AANATL5 (GeneID 37210)	DRSC05994	1.38e5	4956	inactive
CG17698 (GeneID 4379919)	DRSC11907	1.41e5	7499	inactive
Pabp2 (GeneID 35788)	DRSC07501	60325	3750	inactive
CG13053 (GeneID 50274)	DRSC09934	1.34e5	8216	inactive
nocte (GeneID 31976)	DRSC18123	9458	956	inactive
Osi23 (GeneID 43615)	DRSC15074	1.27e5	6676	inactive

Part of the list above, set out differently:
target | amplicon | E2F firefly, rep 1 | Renilla normaliser, rep 1 | activity call
CG42613 (GeneID 42269) | DRSC13332 | 90235 | 2696 | inactive
CG42613 (GeneID 42269) | DRSC14769 | 98702 | 5566 | inactive
CG42613 (GeneID 42269) | DRSC15802 | 85471 | 5663 | inactive

The listing continues.
target	amplicon	E2F firefly, rep 1	Renilla normaliser, rep 1	activity call
RpL35A (GeneID 40654)	DRSC12302	71038	6044	inactive
mtd (GeneID 45467)	DRSC12131	75182	3327	inactive
mtd (GeneID 45467)	DRSC12380	78611	3689	inactive
mtd (GeneID 45467)	DRSC12381	1.30e5	5141	inactive
POSH (GeneID 36990)	DRSC07499	1.47e5	5723	inactive
Nup93-2 (GeneID 41804)	DRSC16221	59096	3062	inactive
CG10834 (GeneID 35438)	DRSC03693	1.09e5	4195	inactive
CG15927 (GeneID 32193)	DRSC19742	1.26e5	5570	inactive
p53 (GeneID 2768677)	DRSC17024	73140	3359	inactive
CG11035 (GeneID 40953)	DRSC14287	67773	3910	inactive
Act79B (GeneID 40444)	DRSC11604	1.22e5	6443	inactive
CG32262 (GeneID 38445)	DRSC08165	74894	4139	inactive
CG3277 (GeneID 33543)	DRSC00588	1.54e5	6450	inactive
CG12994 (GeneID 50350)	DRSC19192	82916	3299	inactive
CG12994 (GeneID 50350)	DRSC19514	1.13e5	4655	inactive
mtt (GeneID 35832)	DRSC05106	1.27e5	4298	inactive
mtt (GeneID 35832)	DRSC05107	1.21e5	4153	inactive
mtt (GeneID 35832)	DRSC06753	1.39e5	5131	inactive
mtt (GeneID 35832)	DRSC07235	1.36e5	4782	inactive
CG13001 (GeneID 32684)	DRSC19520	2.40e5	8342	inactive
7B2 (GeneID 40644)	DRSC11991	1.50e5	6509	inactive
Elp5 (GeneID 38287)	DRSC08547	92962	4239	inactive
Dlish (GeneID 37014)	DRSC06016	1.64e5	5179	inactive
CecB (GeneID 43598)	DRSC16605	1.05e5	5523	inactive
blo (GeneID 35866)	DRSC05937	2892	252	inactive
CG2246 (GeneID 43637)	DRSC15433	1961	832	inactive
scra (GeneID 35696)	DRSC07679	3208	195	inactive
dsx-c73A (GeneID 39831)	DRSC09435	1.31e5	3823	inactive
dsx-c73A (GeneID 39831)	DRSC09914	1.69e5	9431	inactive
dsx-c73A (GeneID 39831)	DRSC10429	1.69e5	7326	inactive
Pef (GeneID 36111)	DRSC06695	2658	206	inactive
CG34242 (GeneID 5740417)	DRSC09185	1.36e5	4622	inactive
CkIIalpha (GeneID 48448)	DRSC11946	1.20e5	7596	inactive
CG9815 (GeneID 37710)	DRSC04567	99535	4336	inactive
Mal-A1 (GeneID 35824)	DRSC07461	1.57e5	4933	inactive
CG33523 (GeneID 38668)	DRSC09814	83484	3275	inactive
Dnaaf6 (GeneID 39598)	DRSC10473	1.61e5	8416	inactive
CG12655 (GeneID 33004)	DRSC20678	1.39e5	6533	inactive
tpr (GeneID 37486)	DRSC04468	77291	3134	inactive
Deaf1 (GeneID 40164)	DRSC11143	1.50e5	7361	inactive
Rack1 (GeneID 34070)	DRSC03405	1.70e5	6985	inactive
Fbl6 (GeneID 36201)	DRSC06335	2805	216	inactive
CR34254 (GeneID 5740610)	DRSC09562	1.22e5	3165	inactive
